Results: PMC7862700
The list shows a part of the results. The exact form of the protein is not confirmed.

Biological target: T1, ETV4 (UniProt P43268)
T1 sequence: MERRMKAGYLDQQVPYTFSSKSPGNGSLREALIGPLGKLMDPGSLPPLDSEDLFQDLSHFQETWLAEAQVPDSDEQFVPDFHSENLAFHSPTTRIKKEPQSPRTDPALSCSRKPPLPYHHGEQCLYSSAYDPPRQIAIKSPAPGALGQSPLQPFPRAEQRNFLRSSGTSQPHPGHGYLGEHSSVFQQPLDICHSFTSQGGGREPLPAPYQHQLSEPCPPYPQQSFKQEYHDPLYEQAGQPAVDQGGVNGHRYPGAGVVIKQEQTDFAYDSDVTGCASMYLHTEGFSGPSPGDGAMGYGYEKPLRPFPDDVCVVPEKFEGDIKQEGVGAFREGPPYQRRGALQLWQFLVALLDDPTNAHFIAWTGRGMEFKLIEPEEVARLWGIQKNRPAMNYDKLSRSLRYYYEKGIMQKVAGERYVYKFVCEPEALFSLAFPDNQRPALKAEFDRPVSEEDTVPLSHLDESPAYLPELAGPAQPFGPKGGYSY
Experiment: DAPPL (digital affinity profiling via proximity ligation, sequencing)
Settings: 10 mM Tris-HCl pH 7.5, 50 mM NaCl, 1 mM DTT, 4% glycerol, room temperature, 30 min; GST-TFs on glutathione beads, 16-mer random dsDNA library, 0.1% …; high values mean tight binding; double strand, one strand shown; scale: fold enrichment (6-mer frequency, TF over GST control)

Sequence	binding signal
AGGGCT	1.02
TGCCAC	1.21
GATGTT	1.28
GCGTCC	1.34
AAGATT	1.16
ACAACA	1.21
TTAATA	1.16
CATCTC	1.35
CTTTAC	1.36
TGTAAC	1.3
CTTCTC	1.44
AACCTG	1.28
TGCACC	1.28
ATTTCG	1.18
ATTGGT	1.24
CCCCGC	1.13
CTTCCA	1.5
GGTACA	1.03
CTTGCG	1.34
CGTTTC	1.8

Sequence	binding signal
TCCACT	1.56
AAAATG	1.14
TCTGTA	1.15
CCTGTG	1.17
CTACTG	1.36
CCTTGT	1.22
AAAGGG	1.15
CACGAC	1.28
ACCCTT	1.24
CGAAAT	1.02
CCATTA	1.11
TTTCCA	1.36
TTTGTC	1.21
GGCTTA	1.07
CTAGCG	1.19
AATTAT	1.23
ACCCCA	1.13
AAAGCT	1.04
CGCTAT	1.08
TCCTCG	1.4
